Results are given in words; binding and its absence hold for the method and conditions named. Binding seen in cells or lysates may run through a third protein. These calls come from enrichment with a bait or labelling near it, and not all partners need be listed. Sequences can lack the tags named with a protein.

The test concerns the target T1, Bdp1-Myc (Myc-tagged Bdp1, subunit of TFIIIB) (S. cerevisiae) (UniProt P46678).
T1 sequence: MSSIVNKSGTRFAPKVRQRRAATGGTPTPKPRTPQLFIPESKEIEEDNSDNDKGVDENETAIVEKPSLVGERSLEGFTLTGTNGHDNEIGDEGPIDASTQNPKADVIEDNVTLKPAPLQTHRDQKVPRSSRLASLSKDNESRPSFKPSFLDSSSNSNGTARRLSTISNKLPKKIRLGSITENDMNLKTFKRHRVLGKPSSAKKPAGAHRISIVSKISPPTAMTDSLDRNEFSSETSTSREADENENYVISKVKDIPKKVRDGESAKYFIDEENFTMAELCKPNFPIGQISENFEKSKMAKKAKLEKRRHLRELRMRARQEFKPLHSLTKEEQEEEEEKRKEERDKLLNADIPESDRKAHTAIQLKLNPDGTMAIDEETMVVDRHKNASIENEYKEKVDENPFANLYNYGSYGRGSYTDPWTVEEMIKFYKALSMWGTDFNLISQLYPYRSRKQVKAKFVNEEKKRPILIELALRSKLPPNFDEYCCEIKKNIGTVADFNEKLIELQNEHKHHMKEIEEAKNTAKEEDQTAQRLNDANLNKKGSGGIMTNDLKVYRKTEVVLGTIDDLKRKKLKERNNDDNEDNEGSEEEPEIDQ
As to the kind of experiment: affinity purification with mass spectrometry; S phase cells (WT and cdk1-as1) fixed with 1% formaldehyde; Bdp1-Myc purified from lysates on magnetic anti-Myc beads overnight at 4°C; washes with high-salt TBS (350 mM NaCl) and TBS; copurifying proteins analysed by quantitative MS.

B1: Tfc4 (subunit of the τA subcomplex of TFIIIC), as found by mass spectrometry (protein, UniProt P33339 1-1025)
chain: MAAGKLKKEQQNQSAERESADTGKVNDEDEEHLYGNIDDYKHLIQDEEYDDEDVPHDLQLSEDEYNSERDSSLLAEFSDYGEISEDDEEDFMNAIREASNFKVKKKKKNDKGKSYGRQRKERVLDPEVAQLLSQANEAFVRNDLQVAERLFNEVIKKDARNFAAYETLGDIYQLQGRLNDCCNSWFLAAHLNASDWEFWKIVAILSADLDHVRQAIYCFSRVISLNPMEWESIYRRSMLYKKTGQLARALDGFQRLYMYNPYDANILRELAILYVDYDRIEDSIELYMKVFNANVERREAILAALENALDSSDEESAAEGEDADEKEPLEQDEDRQMFPDINWKKIDAKYKCIPFDWSSLNILAELFLKLAVSEVDGIKTIKKCARWIQRRESQTFWDHVPDDSEFDNRRFKNSTFDSLLAAEKEKSYNIPIDIRVRLGLLRLNTDNLVEALNHFQCLYDETFSDVADLYFEAATALTRAEKYKEAIDFFTPLLSLEEWRTTDVFKPLARCYKEIESYETAKEFYELAIKSEPDDLDIRVSLAEVYYRLNDPETFKHMLVDVVEMRKHQVDETLHRISNEKSSNDTSDISSKPLLEDSKFRTFRKKKRTPYDAERERIERERRITAKVVDKYEKMKKFELNSGLNEAKQASIWINTVSELVDIFSSVKNFFMKSRSRKFVGILRRTKKFNTELDFQIERLSKLAEGDSVFEGPLMEERVTLTSATELRGLSYEQWFELFMELSLVIAKYQSVEDGLSVVETAQEVNVFFQDPERVKMMKFVKLAIVLQMDDEEELAENLRGLLNQFQFNRKVLQVFMYSLCRGPSSLNILSSTIQQKFFLRQLKAFDSCRYNTEVNGQASITNKEVYNPNKKSSPYLYYIYAVLLYSSRGFLSALQYLTRLEEDIPDDPMVNLLMGLSHIHRAMQRLTAQRHFQIFHGLRYLYRYHKIRKSLYTDLEKQEADYNLGRAFHLIGLVSIAIEYYNRVLENYDDGKLKKHAAYNSIIIYQQSGNVELADHLMEKYLSI
Turning to B1, the binding entry is “binds”.

B2: TBP (subunit of TFIIIB) (protein, UniProt P13393 1-240)
chain: MADEERLKEFKEANKIVFDPNTRQVWENQNRDGTKPATTFQSEEDIKRAAPESEKDTSATSGIVPTLQNIVATVTLGCRLDLKTVALHARNAEYNPKRFAAVIMRIREPKTTALIFASGKMVVTGAKSEDDSKLASRKYARIIQKIGFAAKFTDFKIQNIVGSCDVKFPIRLEGLAFSHGTFSSYEPELFPGLIYRMVKPKIVLLIFVSGKIVLTGAKQREEIYQAFEAIYPVLSEFRKM
Regarding B2, the binding entry is “binds”.

B3: Brf1 (subunit of TFIIIB) (protein, UniProt P29056 1-596)
chain: MPVCKNCHGTEFERDLSNANNDLVCKACGVVSEDNPIVSEVTFGETSAGAAVVQGSFIGAGQSHAAFGGSSALESREATLNNARRKLRAVSYALHIPEYITDAAFQWYKLALANNFVQGRRSQNVIASCLYVACRKEKTHHMLIDFSSRLQVSVYSIGATFLKMVKKLHITELPLADPSLFIQHFAEKLDLADKKIKVVKDAVKLAQRMSKDWMFEGRRPAGIAGACILLACRMNNLRRTHTEIVAVSHVAEETLQQRLNEFKNTKAAKLSVQKFRENDVEDGEARPPSFVKNRKKERKIKDSLDKEEMFQTSEEALNKNPILTQVLGEQELSSKEVLFYLKQFSERRARVVERIKATNGIDGENIYHEGSENETRKRKLSEVSIQNEHVEGEDKETEGTEEKVKKVKTKTSEEKKENESGHFQDAIDGYSLETDPYCPRNLHLLPTTDTYLSKVSDDPDNLEDVDDEELNAHLLNEEASKLKERIWIGLNADFLLEQESKRLKQEADIATGNTSVKKKRTRRRNNTRSDEPTKTVDAAAAIGLMSDLQDKSGLHAALKAAEESGDFTTADSVKNMLQKASFSKKINYDAIDGLFR
With B3, the binding entry is “binds”.
